# Test results: patent US20170298096A1 (CANIMGUIDE THERAPEUTICS, published 2017)
# The chains behind the UniProt entries cited, without tags or fusion partners. Where a name states a change or a piece, a line headed by the entry shows the natural chain unless it says otherwise.
# UniProt P20701: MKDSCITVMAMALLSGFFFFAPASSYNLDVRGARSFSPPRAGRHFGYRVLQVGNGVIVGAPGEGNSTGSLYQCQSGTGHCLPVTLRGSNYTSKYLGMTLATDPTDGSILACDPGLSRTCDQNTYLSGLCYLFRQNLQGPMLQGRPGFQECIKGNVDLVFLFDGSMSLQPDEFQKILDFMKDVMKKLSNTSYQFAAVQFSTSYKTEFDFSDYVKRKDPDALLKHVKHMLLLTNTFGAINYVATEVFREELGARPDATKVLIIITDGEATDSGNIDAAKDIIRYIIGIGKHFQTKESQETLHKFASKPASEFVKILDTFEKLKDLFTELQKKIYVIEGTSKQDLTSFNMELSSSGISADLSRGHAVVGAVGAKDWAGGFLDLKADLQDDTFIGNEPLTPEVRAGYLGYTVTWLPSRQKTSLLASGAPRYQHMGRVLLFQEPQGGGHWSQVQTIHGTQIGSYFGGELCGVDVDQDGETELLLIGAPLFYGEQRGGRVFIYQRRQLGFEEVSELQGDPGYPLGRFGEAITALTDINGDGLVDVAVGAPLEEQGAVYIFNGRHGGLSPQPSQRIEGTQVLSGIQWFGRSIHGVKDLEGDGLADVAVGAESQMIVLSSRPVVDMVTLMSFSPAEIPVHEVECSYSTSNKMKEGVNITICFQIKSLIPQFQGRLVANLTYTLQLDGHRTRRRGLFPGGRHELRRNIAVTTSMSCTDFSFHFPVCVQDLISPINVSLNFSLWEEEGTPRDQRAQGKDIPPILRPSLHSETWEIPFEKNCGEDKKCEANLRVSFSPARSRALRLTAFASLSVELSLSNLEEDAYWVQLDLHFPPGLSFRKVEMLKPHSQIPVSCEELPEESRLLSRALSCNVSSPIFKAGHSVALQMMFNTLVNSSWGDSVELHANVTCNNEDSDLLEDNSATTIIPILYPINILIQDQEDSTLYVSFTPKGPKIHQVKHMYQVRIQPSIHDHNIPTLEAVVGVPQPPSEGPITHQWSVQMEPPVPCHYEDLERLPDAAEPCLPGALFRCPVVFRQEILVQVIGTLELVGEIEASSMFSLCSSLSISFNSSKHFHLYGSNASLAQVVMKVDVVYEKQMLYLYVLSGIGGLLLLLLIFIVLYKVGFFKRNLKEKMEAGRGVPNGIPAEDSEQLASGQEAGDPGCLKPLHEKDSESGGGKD
# Results are given in words; binding and its absence hold for the method and conditions named. Some entries that bind do so weakly or less than the wild type. For part of these data: Sequences can lack the tags named with a protein. No end group written: not given here.
# T1: His-tagged P3028 (human)
# T1 sequence (peptide): VFDEFKPLVEEPQNLIK
# Experiments:
# His-tagged P3028 (human) [1] = target: T1, His-tagged P3028 (human); assay: PEPSCAN ELISA (rampo)
# His-tagged P3028 (human) [2] = target: T1, His-tagged P3028 (human); assay: PEPSCAN ELISA, peptide 0.5 mg/mL in solution as competitor
# LFA-1 (human) = LFA-1 (human) (UniProt P20701); assay: immunocytochemical staining of LFA-1 on PBMCs
binder,measurement,setting,value
KKLDTFFVKLGLFTER [SEQ ID NO 99],binding,His-tagged P3028 (human) [1],binds
KKLDTFFKKLSLFTE [SCF28],binding,His-tagged P3028 (human) [2],binds
VFDEFKPLVEEPQNLIK [P3028],binding,LFA-1 (human),binds
